Laboratory results: PubChem BioAssay AID686937 (Drosophila RNAi Screening Center, 2013)
In all, the deposit lists about 23,000 reagents; shown is an unselected part of those that have a named target and a result. 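Reduced-secretion tags in replicate 1 do not always agree with the z-scores; no criterion for assigning the tags was given.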 Names joined by + are all predicted targets of the reagent. The record does not give: the amount of reagent.

- Assay: 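Genes in the fly needed for secretion of protein constitutively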 (primary screen)
- System: Drosophila S2 cells expressing secreted horseradish peroxidase
- Reagent: long dsRNA against Drosophila genes
- Timing: about 5.5 days (5 days dsRNA, then 12 h reporter induction)
- Conditions: reporter expression induced after 5 days of dsRNA, read 12 h later; inducer not stated
- Read-out: 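After 5 days of dsRNA and 12 h of reporter induction, medium peroxidase read by chemiluminescence and scored as per-plate z-score; higher values mean more reporter released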
- Direction: z-score: higher = more reporter secreted into medium

target	dsRNA	z-score, replicate 1	z-score, replicate 2	z-score, replicate 3	z-score, replicate 4	phenotype, replicate 1
fs(1)Yb	DRSC18777	0.18	0.3			
slf	DRSC00583	0.32	0.32			
prtp	DRSC19804	0.34	-0.82	-1.07	0.34	
prtp	DRSC22494	0.21	-0.34			
Nab2	DRSC14158	0.32	0.34			
Hmr	DRSC17740	-0.13	0.02			
CG11378	DRSC18627	0.39	0.38			
TkR86C	DRSC16880	0.36	-0.36			
CG13053	DRSC09934	0.01	0.02			
fiz	DRSC20188	0.04	0.26			
Cpr97Eb	DRSC15123	0.38	-0.01			
CR43096 + CG43060	DRSC12654	0.1	0.19			
Strip	DRSC08194	-0.29	-0.56			
Ilk	DRSC11868	-0.21	-0.88			
CG12538	DRSC14527	-0.78	0.18			
CG18528	DRSC15340	0.38	0.11			
NimC4	DRSC01945	0.11	-0.3			
CG14877	DRSC15001	0.11	0.39			
CG32437	DRSC11760	0.35	0.54			
CG32437	DRSC22020	-0.26	0.04			
alpha-Man-Ib	DRSC14418	-0.44	0.35			
CG6678	DRSC16092	0.23	0.35			
Snx21	DRSC00564	0.37	0.51			
Grx3	DRSC02966	0.38	0.29			
CG31016	DRSC21359	-1.08	-0.44			reduced secretion
Tsf1	DRSC20296	0.22	0.02			
CG2187	DRSC15425	0.48	0.4			
CG14641	DRSC12227	-0.67	0.19			
CG13102 + Rcd-1r	DRSC03266	0.38	0.19			
babo	DRSC07581	0.22	0.02			
TTLL6A	DRSC06618	0.34	0.22			
Pdss2	DRSC11625	0.11	0.11			
Proc-R	DRSC18410	0.29	0.23			
CG17328	DRSC01927	0.22	0.21	0.16	0.33	
CG17328	DRSC22448	1.4	0.62			
zpg	DRSC09702	0.35	0.34			
CG14926	DRSC02409	0.65	0.27			
CG5849	DRSC15893	0.36	0.46			
mRpS9	DRSC12645	-0.42	-0.36			
mRpS9	DRSC15456	0.39	0.2	-0.38	0.28	
Dronc	DRSC11231	0.25	0.28			
CG33303	DRSC02848	-1.9	-1.75			reduced secretion
tbrd-2	DRSC07020	0.3	0.36			
Aven	DRSC19693	0.52	0.52			
CG5084	DRSC06913	-0.03	-0.07			
S1P	DRSC11810	-0.15	0.17			
Sec61beta	DRSC07548	0.37	0.17	-1.85	-1.08	reduced secretion
Sec61beta	DRSC21512	-2.9	-2.54			reduced secretion
Spf30	DRSC11976	-0.75	-0.57			
CG4972	DRSC02798	0.24	-0.03			
CG14851	DRSC14975	0.37	0.61			
CG14851	DRSC21500	0.41	-0.73			
Lint-1	DRSC19822	0.54	0.43			
E(spl)m5-HLH	DRSC16695	0.32	0.33			
disco-r	DRSC20173	0.03	0.43			
disco-r	DRSC20174	0.24	0.55			
Orco	DRSC12358	0.24	0.58			
CG7600	DRSC09681	-0.41	-0.11			
Kat60	DRSC12378	0.35	0.77			
scny	DRSC10509	0.22	0.6			
scny	DRSC10510	-0.01	0.13			
CG15578	DRSC18066	0.25	-0.12			
CG30413	DRSC04001	0.14				
p	DRSC16560	0.08	0.28			
barr	DRSC03488	-0.6	-0.95			
Vps20	DRSC04448	0.11	0.01			
CG45263	DRSC12682	0.45	0.41			
CG45263	DRSC14357	0.43	0.26			
CG45263	DRSC14360	0	0.25			
CG45263	DRSC14361	-0.31	-0.28			
CG45263	DRSC14363	0.39	0.21			
drn + CG43675	DRSC15147	0.21	-1.64			
CG2983	DRSC00558	0.29	0.36			
CG9747	DRSC16554	0.25	-0.45	-0.18	0.21	
Hs3st-A	DRSC06507	0.19	0.21			
Hs3st-A	DRSC06508	0.42	0.38			
Hs3st-A	DRSC06509	0.34	0.09			
CG17283	DRSC15219	0.53	0.55			
Hacl	DRSC06061	0.43	0.11			
CG4586	DRSC18373	0.41	0.38			
CG32269 + CG32270	DRSC08195	0.28	0.26			
CG12104	DRSC08254	0.22	0.06			
eIF2Bdelta	DRSC04058	-2.35	-0.48			reduced secretion
RpS10a	DRSC14161	0.25	0.48			
CG15199	DRSC19646	0.28	0.3			
Pglym78	DRSC16787	0.12	0.22			
CG5126	DRSC00680	0.41	0.38			
Dyrk3	DRSC21055	0.77	0.28			
CR14117	DRSC10121	0.24	0.4			
Ttc1	DRSC15016	-0.22	-0.22			
Ttc1	DRSC22469	-0.25	-0.38			
CG34187 (retired record) + Trpm	DRSC05543	0.38	-0.15			
SmB	DRSC03437	-6.18	-3.6			reduced secretion
CG12362	DRSC09884	0.53	0.45			
Hrb27C	DRSC03347	0.33	0.03			
CG32187	DRSC10521	0.18	0.24			
CG30002	DRSC05182	-0.09				
glob1	DRSC16959	-0.02	0.15			
rn	DRSC12500	-4.08	-5			reduced secretion
rn	DRSC12543	0.4	0.44			
rn	DRSC12544	0.12	0.05			
rn	DRSC12546	-0.17	0.07			
rn	DRSC22291	0.73	0.85			
CG6171	DRSC15982	0.32	0.33			

Sorted by “z-score, replicate 1” (ascending): some entries from above
target	dsRNA	z-score, replicate 1	z-score, replicate 2	z-score, replicate 3	z-score, replicate 4	phenotype, replicate 1
barr	DRSC03488	-0.6	-0.95			
CG45263	DRSC14361	-0.31	-0.28			
scny	DRSC10510	-0.01	0.13			
CG45263	DRSC14360	0	0.25			
p	DRSC16560	0.08	0.28			
Vps20	DRSC04448	0.11	0.01			
CG30413	DRSC04001	0.14				
drn + CG43675	DRSC15147	0.21	-1.64			
CG15578	DRSC18066	0.25	-0.12			
CG2983	DRSC00558	0.29	0.36			
CG45263	DRSC14363	0.39	0.21			
CG45263	DRSC14357	0.43	0.26			
CG45263	DRSC12682	0.45	0.41			
